Results deposited as PubChem BioAssay AID504786 (Drosophila RNAi Screening Center, 2011)
Aim: 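Positive regulators of HIF-driven reporter output in Drosophila cells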 (primary screen). Cell system: Drosophila S2 cells with a stable HIF luciferase reporter. Knock-down reagent: long dsRNA against Drosophila genes, about 0.2 µg dsRNA per well of a 384-well plate. Duration: three days of knock-down, then 20 h of DFO before reading. Treatment: desferrioxamine (DFO) at 100 µM, an iron chelator that mimics hypoxia, for 20 h. Read-out: 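HIF reporter luminescence in cells given 100 µM DFO for 20 h, using the mouse ldh-a hypoxia-response element, scored as per-plate z-scores; higher means greater loss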. Direction: z-score: higher = stronger loss of HIF reporter signal.
The screen tested about 21,000 reagents; below is a random part of those with a known target gene and a result. 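Primary screen; positive scores mean lost reporter signal, so the sign may be inverted from the usual convention.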 Names joined by + are all predicted targets of the reagent.

gene,DRSC id,"z-score, replicate 1","z-score, replicate 2","z-score, replicate 3","z-score, replicate 4"
CG14445,DRSC17938,-0.2,-0.7,,
Mzt1,DRSC07979,-0.2,0,,
CG5126,DRSC00680,-0.1,-0.5,,
rtet,DRSC14160,-0.2,-0.2,,
CG16798,DRSC02517,-0.4,-0.3,,
Piezo,DRSC03092,-0.3,-0.4,,
CG12784,DRSC14539,-0.2,0.1,,
Skp2 + CG1103,DRSC12160,-0.3,-0.3,,
sr,DRSC13284,-0.2,-0.2,,
sr,DRSC17067,1,-0.8,,
CG30350,DRSC07690,-0.3,-0.2,,
CG2150,DRSC15420,-0.3,-0.2,,
CG13117,DRSC02215,-0.3,-0.4,,
Galphao,DRSC07430,-0.3,-0.3,,
hook,DRSC03545,-0.4,-0.6,,
Nnp-1,DRSC02165,-0.1,3.7,,
OdsH,DRSC20263,-0.4,0.2,,
Wdr33,DRSC12162,1.6,2.3,,
TyrRII,DRSC15150,0.3,0.4,,
ATPsynB,DRSC09659,1.5,0.8,,
alpha4GT1,DRSC00488,-0.3,-0.3,,
CG11655,DRSC19413,-0.1,-0.5,,
CG12321,DRSC14499,-0.2,-0.2,,
CG31300,DRSC14657,-0.4,-0.1,,
CG7049,DRSC08587,-0.2,-0.3,,
CCT3,DRSC16602,-0.2,0.4,,
Pi3K68D,DRSC11253,2.3,1.4,,
RpS19a,DRSC20281,8.9,5.4,,
fd3F (retired record) + Crg-1,DRSC17283,-0.2,-0.5,,
abs,DRSC12372,0.6,0.9,,

Next part (3 carried over from the part before).
gene,DRSC id,"z-score, replicate 1","z-score, replicate 2","z-score, replicate 3","z-score, replicate 4"
RpS19a,DRSC20281,8.9,5.4,,
fd3F (retired record) + Crg-1,DRSC17283,-0.2,-0.5,,
abs,DRSC12372,0.6,0.9,,
pen-2,DRSC05722,0.1,-0.2,,
COX4L,DRSC04841,0,-0.2,,
TotM,DRSC02355,-0.2,0.8,,
rha,DRSC17044,-0.2,-0.3,,
Aptx,DRSC15768,-0.4,0.3,,
Best3,DRSC09880,-0.1,0.3,,
CG6071,DRSC10579,-0.2,-0.5,,
CG9389,DRSC11857,-0.1,-0.1,,
CG6290,DRSC19979,-0.3,-0.6,,
alpha-Est8,DRSC12620,-0.4,-0.5,,
beat-IIIb,DRSC02435,-0.3,-0.7,,
CG9518,DRSC20194,-0.2,0.2,,
Cluap1,DRSC20637,-0.5,-0.1,,
RpL30,DRSC02087,4.6,3.7,,
T48,DRSC16878,-0.3,0.2,,
Mgtor,DRSC05958,-0.4,-0.6,,
Gcna,DRSC18553,-0.3,-0.3,,
mRpS33,DRSC14239,1.1,1.2,,
CG3746,DRSC04412,-0.4,-0.4,,
CG33255 (retired record) + hpRNA:CR32205 + hpRNA:CR32207,DRSC09617,0.2,0.4,,
CG3061,DRSC15460,-0.3,-0.7,,
CG4596,DRSC15608,-0.2,-0.3,,
CG5877,DRSC19963,-0.3,-0.5,,
CG4892,DRSC01937,-0.1,-0.3,,
prc,DRSC11385,-0.3,-0.2,,
CG33557,DRSC17854,-0.4,0.1,,
KdelR,DRSC03353,-0.1,0.1,,
CG16741,DRSC06622,-0.6,-0.4,,
TppII,DRSC07565,-0.2,-0.6,,
CG1648,DRSC06610,-0.3,-0.4,-0.5,-0.3
CG15550,DRSC15088,0,-0.2,,
CG3502 + CG9863,DRSC04578,-0.4,-0.2,,
CG1724,DRSC20548,-0.2,-0.4,,
Ciao1,DRSC06170,-0.4,-0.4,,
Eip63E,DRSC08658,-0.5,-0.9,,
CG12432 (retired record),DRSC19455,-0.6,-0.1,,
smp-30,DRSC17059,-0.2,-0.3,,
step,DRSC03694,-0.1,0,,
step,DRSC03699,-0.2,0,,
CG5946,DRSC10560,-0.3,-0.2,,
Surf6,DRSC15588,-0.2,0.4,,
CG12814,DRSC14552,-0.3,0,,
CG12814,DRSC14553,-0.3,-0.2,,
Srp14,DRSC15797,0.1,0.1,,
tra,DRSC11405,-0.2,-0.3,,
Cpr47Eg,DRSC07330,-0.1,-0.2,,
Nepl10,DRSC07212,-0.3,-0.3,,
Ac76E,DRSC09642,0.5,0.4,,
Ac76E,DRSC09662,-0.3,-0.5,,
CG4372,DRSC04466,-0.3,-0.4,,
CG13933,DRSC08402,-0.3,-0.6,,
Paics,DRSC20305,-0.3,-0.6,,
CoRest,DRSC19881,1.8,1,,
